# Test results: patent publication EP0462123B1, “UV-ABSORBING COMPOUNDS AND COMPOSITIONS” (AUSTRALIAN INSTITUTE OF MARINE SCIENCE, priority 1989, dated 1990)
# At least one compound was matched to its structure with a doubt left.
# Experiment: E1%: relative UV absorbance of a 1% w/w solution
# Format: physicochemical
# Conditions: relative measure of the UV absorbance of a 1% w/w solution of the compound
# Excerpt: This example compares the ultraviolet light absorbing properties and water resistance properties of compounds of the invention.
# E1% is a relative measure of the UV absorbance of a 1% w/w solution of the compound.
smiles,measurement,value
"CCCCCCCCCC(=O)C1=CN(C(C)C)CCC1(C)C [Compound 15, 1-(-Methylethyl)-3 decanoyl--4,4-dimethyl-1,4,5,6-tetrahydropyridine]",E1%,95
